No constants are given. Whether binding was seen depends on the method and setting. In cells and extracts the contact can be indirect. Sequences can lack the tags named with a protein.
T1: SNX19-GFP (human) (UniProt Q92543)
T1 sequence: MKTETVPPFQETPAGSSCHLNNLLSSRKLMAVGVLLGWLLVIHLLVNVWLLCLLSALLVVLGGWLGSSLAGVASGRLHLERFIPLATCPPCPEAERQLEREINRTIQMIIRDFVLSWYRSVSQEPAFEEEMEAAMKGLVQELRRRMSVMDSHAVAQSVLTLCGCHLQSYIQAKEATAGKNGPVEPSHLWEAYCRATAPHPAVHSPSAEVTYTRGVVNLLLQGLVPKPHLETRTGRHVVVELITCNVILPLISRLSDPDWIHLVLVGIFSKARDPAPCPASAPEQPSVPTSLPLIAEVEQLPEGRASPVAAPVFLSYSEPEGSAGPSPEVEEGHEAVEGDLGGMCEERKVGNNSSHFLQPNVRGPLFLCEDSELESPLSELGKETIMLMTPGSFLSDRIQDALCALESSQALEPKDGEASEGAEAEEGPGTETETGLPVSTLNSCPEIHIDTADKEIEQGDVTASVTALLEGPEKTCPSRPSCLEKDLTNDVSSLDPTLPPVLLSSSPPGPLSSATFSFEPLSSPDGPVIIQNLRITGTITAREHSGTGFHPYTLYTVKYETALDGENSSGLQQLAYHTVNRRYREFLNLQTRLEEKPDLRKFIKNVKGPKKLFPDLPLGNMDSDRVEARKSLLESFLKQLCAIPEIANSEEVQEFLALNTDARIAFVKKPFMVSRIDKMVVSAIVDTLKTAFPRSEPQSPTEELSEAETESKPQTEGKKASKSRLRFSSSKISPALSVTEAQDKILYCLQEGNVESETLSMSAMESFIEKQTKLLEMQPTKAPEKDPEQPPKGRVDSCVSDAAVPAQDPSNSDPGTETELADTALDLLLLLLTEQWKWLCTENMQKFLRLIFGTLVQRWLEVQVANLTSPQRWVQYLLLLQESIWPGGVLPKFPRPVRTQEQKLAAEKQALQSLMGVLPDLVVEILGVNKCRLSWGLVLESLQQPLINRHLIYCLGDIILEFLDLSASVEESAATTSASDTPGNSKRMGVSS

Sequences of proteins named here, by UniProt entry; tags and fusion partners are left off. A change or cut given only in a name is not applied to a line headed by its entry. Residues count along the entry.
UniProt Q9Y6G9, residues 389-523: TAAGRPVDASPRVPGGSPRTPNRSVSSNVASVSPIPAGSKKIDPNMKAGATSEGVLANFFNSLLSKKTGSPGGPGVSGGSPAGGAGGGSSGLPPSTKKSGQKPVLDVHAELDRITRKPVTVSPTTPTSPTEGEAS
UniProt P33176: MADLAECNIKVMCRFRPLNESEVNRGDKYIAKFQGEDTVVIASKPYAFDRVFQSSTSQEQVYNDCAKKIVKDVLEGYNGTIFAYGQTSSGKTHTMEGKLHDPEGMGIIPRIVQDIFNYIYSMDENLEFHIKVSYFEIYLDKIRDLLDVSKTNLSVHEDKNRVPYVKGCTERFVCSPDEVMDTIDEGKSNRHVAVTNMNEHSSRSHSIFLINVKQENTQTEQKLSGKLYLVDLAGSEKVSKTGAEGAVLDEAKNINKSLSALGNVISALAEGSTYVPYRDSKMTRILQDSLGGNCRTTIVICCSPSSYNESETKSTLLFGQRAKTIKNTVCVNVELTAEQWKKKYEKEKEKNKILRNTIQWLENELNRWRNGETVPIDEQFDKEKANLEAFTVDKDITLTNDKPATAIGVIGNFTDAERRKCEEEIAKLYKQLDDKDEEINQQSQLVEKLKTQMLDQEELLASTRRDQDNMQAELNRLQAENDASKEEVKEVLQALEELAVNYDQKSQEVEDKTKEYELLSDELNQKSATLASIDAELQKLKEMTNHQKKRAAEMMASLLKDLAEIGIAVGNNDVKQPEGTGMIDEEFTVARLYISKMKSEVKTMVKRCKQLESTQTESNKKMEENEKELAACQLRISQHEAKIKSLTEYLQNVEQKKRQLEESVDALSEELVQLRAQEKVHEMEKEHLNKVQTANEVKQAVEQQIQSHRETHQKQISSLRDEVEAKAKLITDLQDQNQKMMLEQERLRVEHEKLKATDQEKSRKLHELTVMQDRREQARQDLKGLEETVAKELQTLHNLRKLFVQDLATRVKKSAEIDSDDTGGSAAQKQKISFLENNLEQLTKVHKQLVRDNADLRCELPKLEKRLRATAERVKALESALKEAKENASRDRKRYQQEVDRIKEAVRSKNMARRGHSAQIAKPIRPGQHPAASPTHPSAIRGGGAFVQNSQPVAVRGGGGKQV

B1: SNX19-GFP (protein, UniProt Q92543 1-992)
chain: T1 sequence

Experiments:
[1] = target: T1, SNX19-GFP (human); experiment: co-IP; GFP-Trap magnetic beads on lysates of HEK293T cells transfected with SNX19-GFP; endogenous kinesin chains looked for by immunoblot
[2] = target: GST-LIC1-CT (human) (UniProt Q9Y6G9); experiment: pull-down; purified GST-LIC1-CT re-bound to glutathione resin, incubated 1 h at 4 °C with pre-cleared lysate of HEK293T cells transfected with SNX19-GFP; washed in 10 mM Tris-HCl pH 7, 50 mM NaCl, 2 mM MgCl2, 2 mM TCEP; immunoblot for GFP and GST; only the target purified

Row | Molecule | binding [1] | binding [2]
1 | kinesin-1 (from UniProt P33176 1-963; Q9H0B6 1-622) (complex) | no binding | –
2 | B1 | – | no binding

— paper PMC8316374
